This data set can be described thus: Detection limit in air / quantitation limit in water by laboratory gas chromatograph. Particulars: for LOQ in water: extrapolated quantitation limit in water, signal-to-noise ratio multiplied by ten; for LOD in air: measured detection limit in air, three times signal-to-noise ratio, laboratory gas chromatograph.

Structures are written as SMILES.

Consider `ClC(Cl)C(Cl)Cl` [1,1,2,2-TETRACHLOROETHANE], for which the LOQ in water was 17 ng/mL and the LOD in air turned out to be 10 ppb - v/v.
Regarding `ClCC(Cl)Cl` [1,1,2-TRICHLOROETHANE], the LOQ in water is 13 ng/mL and the LOD in air was 15 ppb - v/v.
The matching figures for `CC(Cl)(Cl)Cl` [1,1,-TRICHLOROETHANE]: 1.2 ng/mL and 2.5 ppb - v/v.
The corresponding values for `CC(Cl)Cl` [1,1-DICHLOROETHANE] are 130 ng/mL and 270 ppb - v/v.
Regarding `Clc1ccccc1Cl` [1,2-DICHLOROBENZENE], the LOQ in water is 170 ng/mL and the LOD in air came out at 90 ppb - v/v.
The corresponding values for `ClCCCl` [1,2-DICHLOROETHANE] are 37 ng/mL and 76 ppb - v/v.
The corresponding values for `CC(Cl)CCl` (stereo not drawn) [1,2-DICHLOROPROPANE] are 54 ng/mL and 120 ppb - v/v.
The corresponding values for `ClC(Cl)Br` [BROMODICHLOROMETHANE] are 1.2 ng/mL and 3.0 ppb - v/v.
For the compound `BrC(Br)Br` [BROMOFORM], the LOQ in water is 16 ng/mL and the LOD in air is 9.4 ppb - v/v.
The corresponding values for `ClC(Cl)(Cl)Cl` [CARBON TETRACHLORIDE] are 0.23 ng/mL and 0.54 ppb - v/v.
The corresponding values for `Clc1ccccc1` [CHLOROBENZENE] are 260 ng/mL and 310 ppb - v/v.
The matching figures for `ClC(Br)Br` [CHLORODIBROMOMETHANE]: 4.2 ng/mL and 4.6 ppb - v/v.
Turning to `ClC(Cl)Cl` [CHLOROFORM], the LOQ in water was 1.4 ng/mL and the LOD in air stood at 2.7 ppb - v/v.
The corresponding values for `CBr` [METHYL BROMIDE] are 6.0 ng/mL and 137 ppb - v/v.
The corresponding values for `ClCCl` [METHYLENE CHLORIDE] are 9.2 ng/mL and 22 ppb - v/v.
The matching figures for `ClC(Cl)=C(Cl)Cl` [PERCHLOROETHYLENE]: 0.48 ng/mL and 0.69 ppb - v/v.
Consider `ClC=C(Cl)Cl` [TRICHLOROETHYLENE], for which the LOQ in water was 0.94 ng/mL and the LOD in air amounted to 2.8 ppb - v/v.
Turning to `C=C(Cl)Cl` [[…]], the LOQ in water is 1.9 ng/mL and the LOD in air was found to be 6.8 ppb - v/v.
The corresponding values for `Cl/C=C\CCl` [c-1,3 DICHLOROPROPENE] are 28 ng/mL and 30 ppb - v/v.
The corresponding values for `Cl/C=C/Cl` [t-1,2-DICHLOROETHYLENE] are 42 ng/mL and 200 ppb - v/v.
The matching figures for `Cl/C=C/CCl` [t-1,3-DICHLOROPROPENE]: 12 ng/mL and 26 ppb - v/v.
